This series is described as follows: general procedure: Fmoc solid-phase peptide synthesis; 2-chlorotrityl chloride (CTC) resin (100–200 mesh; 1.2 mmol/g, 1 g); HCTU, HOBt, DIPEA. The note with it: whole synthesis, TFA salts.

These results are taken from PMC6615598 (PLoS Biology, 2019).

HELM strings list residues between dots; [ac] is acetyl, [am] amide, other brackets name non-standard units.

In the case of “PEPTIDE1{F.F.W.R.R.V.K}$PEPTIDE1,PEPTIDE1,1:R1-7:R2$$$V2.0”, the isolated yield turned out to be 20%.

Regarding “PEPTIDE1{[A1Nal].F.[A1Nal].R.R.V.K}$PEPTIDE1,PEPTIDE1,7:R2-1:R1$$$V2.0”, the isolated yield is given as 17%.
